Data set [1] deals with L. donovani intracellular amastigotes. The data set is described as follows: L. donovani intracellular amastigote assay in B10R cells (high content imaging). It counts as cell-based, Leishmania donovani. Conditions: ratio between CC50 in B10R cells and EC50 against L. donovani intracellular amastigotes. On the procedure:
For the intracellular amastigote stage assay, L. donovani was incubated at a density of 1 × 10^6 parasites/mL for six days at 29 °C before infection to enrich the proportion of metacyclic promastigotes. B10R monocyte cell lines were cultured in RPMI supplemented with 10% FBS and 1%penicillin/streptomycin at 37 °C in 5% CO2. After 72 h, cells were counted with a hemocytometer and mixed with the six-day-old parasites. Into 384-well assay plates, that had been pre-spotted with compounds diluted 1000-fold in DMSO, with final assay concentrations ranging from 20 µM to 0.02 µM and tested in biological triplicates., 500 B10R cells and 7000 parasites were dispensed per well in a final volume of 50 µL using a Multidrop Combi liquid dispenser (ThermoScientific, Waltham, MA, USA). Plates were incubated at 37 °C and 5% CO2 for 72 h. Cultures were then fixed with 4% formaldehyde solution for 30 min and stained with 0.5 µg/mL DAPI (diamidino-2-phenylindole). Plates were then imaged using an ImageXpress Micro XLS automated high content imager (Molecular Devices, San Jose, CA, USA) using a 10× air objective. A custom image analysis module generated in ImageXpress was used to count the nuclei of host and parasite cells. EC50 values were obtained using the GraphPad Prism 9 Software with biological triplicates.

Data set [2] deals with T. cruzi (infecting C2C12). Nature of the data set: T. cruzi intracellular amastigote assay in C2C12 cells (high content imaging). Conditions: ratio between CC50 in C2C12 cell lines and EC50 against T. cruzi intracellular amastigotes. The class given is cell-based, Trypanosoma cruzi. On the procedure:
Mouse C2C12 myoblasts (ATCC CRL-1772) were cultivated in RPMI 1640 medium supplemented with 5% FBS and kept at 37 °C and 5% CO2. T. cruzi CAI-72 trypomastigotes were obtained from the supernatant of C2C12 cells infected four to seven days previously. For the assay, 500 C2C12 cells were mixed with 7500 T. cruzi parasites and seeded into 384-well plates at a 50 µL final volume. Test compounds and reference drugs (Benznidazole and K11777) were pre-spotted into the 384 well black bottom plates prior to the addition of cells and parasites with final assay concentration of 20 µM to 0.02 µM. The plates were incubated at 37 °C^, 5% CO2 for 72 h. Cultures were then fixed with 4% formaldehyde and 0.5 µg/mL DAPI (diamidino-2-phenylindole) was added for staining nucleic acids. Plates were kept protected from light for 1 h and then imaged in an ImageXpress Micro XLS automated high content imager (Molecular Devices, San Jose, CA, USA). Imaging and data analysis were performed as described for L. donovani amastigotes on biological triplicates.

With `C=[CH][Sn]([CH]=C)([O]C(=O)CCC(=O)Nc1ccc(OC)cc1)[O]C(=O)CCC(=O)Nc1ccc(OC)cc1` [MS26vin2], in data set [1], the “SI^a” value was determined as 1. For the same molecule, in data set [2], the “SI^b” value amounted to 1.

Consider `CCC[CH2][Sn]([CH2]CCC)([O]C(=O)CCC(=O)Nc1ccc(OC)cc1)[O]C(=O)CCC(=O)Nc1ccc(OC)cc1` [MS26Bu2], for which the “SI^a” value in data set [1] amounted to 3.78. Moreover, the “SI^b” value in data set [2] was found to be 0.27.

Take `CCC[CH2][Sn]([Cl])([Cl])[O]C(=O)CCC(=O)Nc1ccc(OC)cc1` [MS26BuSnCl2]: the “SI^a” value in data set [1] worked out at 0.031. Also, in data set [2], the “SI^b” value is 0.91.

As to `CCC[CH2][Sn]([CH2]CCC)([CH2]CCC)[O]C(=O)CCC(=O)Nc1ccc(OC)cc1` [MS26Bu3], in data set [1], the “SI^a” value was determined as 0.8. Besides, in data set [2], the “SI^b” value was 2.

Take `COc1ccc(NC(=O)CCC(=O)[O][Sn]([CH3])([CH3])[CH3])cc1` [MS26Me3]: in data set [1], the “SI^a” value is reported as 1.45. Also, the “SI^b” value in data set [2] was 0.47.

With `COc1ccc(NC(=O)CCC(=O)[O][Sn]([CH]2CCCCC2)([CH]2CCCCC2)[CH]2CCCCC2)cc1` [MS26Cy3], the “SI^a” value in data set [1] turned out to be 0.01. In addition, the “SI^b” value in data set [2] stood at 66.

As to `C[CH2][Sn]([CH2]C)([CH2]C)[O]C(=O)CCC(=O)Nc1ccc(OC)cc1` [MS26Et3], the “SI^a” value in data set [1] stood at 13.1. In data set [2], the “SI^b” value is 11.7.

Consider `COc1ccc(NC(=O)CCC(=O)[O][Sn]([c]2ccccc2)([c]2ccccc2)[c]2ccccc2)cc1` [MS26Ph3], for which the “SI^a” value in data set [1] is listed as 0.1. For the same molecule, the “SI^b” value in data set [2] is listed as 0.03.
